# Results taken from PubChem BioAssay AID2685 (National Center for Advancing Translational Sciences (NCATS), 2010).
# Among all 320,000 compounds or so, about 2,100 (0.66%) were called active. The inconclusive results got no clear call from the source; some entries with a clear call stand among them for comparison. Calls come from the whole dose curve; as a rule, active = well fitted inhibition curve with a large enough effect in the signal ratio, with a control signal flat (not every such curve was filed as active); inconclusive = small, poorly fitted or top-dose-only effect, or effect the other way, or a change in a side signal; inactive = flat fitted curve, though single readings scatter; the % refers to the signal ratio. Potencies of inconclusive entries are doubtful fits and often do not repeat.
# Test: qHTS Assay for Lipid Storage Modulators in Drosophila S3 Cells
# Details: BODIPY lipid droplet fluorescence, 18-24 h, cells fed with added oleic acid; lipid storage change, negative = inhibition: at 46.1 µM (top of the series) unless noted
# In short: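 Drosophila S3 cells got compounds at several concentrations plus oleic acid (400 uM solution). Laser-scanning cytometry with 488 nm excitation read lipid droplets at 500-530 nm and cells at 575-640 nm. Percent activity was relative to 20 uM Triacsin C.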
# % is set by controls: 0 for no effect and ±100 for the full control effect; potency is the fitted concentration of half-maximal effect.
SMILES,Potency,"lipid storage change, negative = inhibition"
O=C(COC(=O)CCC(=O)c1ccc(F)cc1)Nc1ccc(F)cc1F,"inconclusive: 0.058 µM [falling, full curve, poor fit]",
COc1cc(Cl)ccc1OCc1cc(C(=O)NCc2cc(C(C)C)no2)no1,"inconclusive: 13 µM [falling, partial curve, poor fit]",
O=C(O)/C=C/C(=O)Nc1ccc(-c2ccccc2)cc1,,inconclusive: 22.8%
Cc1cc(C)n2nc(CCc3ccccc3)nc2n1,,inconclusive: 11.2%
Cc1cc(-c2ccc(S(=O)(=O)N3CCN(c4ccc(F)cc4)CC3)s2)on1,,inactive
CCOC(=O)N1CCN(C(=O)/C(=C/c2ccc(Cl)cc2)NC(=O)c2ccccc2)CC1,,inconclusive: -4.66%
CC1=NN(c2ccccc2)C(=O)/C1=C/c1cccs1,,inconclusive: -6.67%
Cc1cnc(=O)[nH]c1SCC(=O)Nc1nccs1,,inconclusive: 14.1%
COc1ccc(N=C2S/C(=C\c3cc(C)n(C)c3C)C(=O)N2CC(C)C)cc1,,inconclusive: -41.4%
COC(=O)CCN(C(=O)c1cccc(OC(C)=O)c1)c1ccccn1,active: 25.9 µM,
Cc1ccc(S(=O)(=O)N(C)C)cc1NC(=O)COc1ccc(-c2nnco2)cc1,"inconclusive: 8.2 µM [falling, partial curve]",
O=c1c(O)c(-c2ccc(O)c(O)c2)oc2cc(O)cc(O)c12,,inconclusive: -29.1%
COc1ccc(N(CC(=O)NCc2ccccc2Cl)S(=O)(=O)c2c(C)n[nH]c2C)cc1,"inconclusive: 0.651 µM [falling, single point]",
COc1ccc(C(CNC(=O)c2cccc(S(=O)(=O)Nc3ccc(C)cc3)c2)N2CCOCC2)cc1 (stereo not given),"inconclusive: 0.146 µM [falling, full curve, poor fit]",
Cc1ccc2nc(SCC(=O)Nc3cc(C)on3)nc(=O)n2c1,,inactive: -10.5% [at 0.0737 µM]
CCCCOc1ccc(C(=O)NCC(=O)N(C)Cc2nc3ccccc3c(=O)[nH]2)cc1,"inconclusive: 29.1 µM [activator, single point]",
CCOc1ccc(C2C(C#N)=C(N)SC(N)=C2C#N)cc1OC,,inconclusive: 14.2%
O=C(Nc1nccs1)c1ccc(Cl)c(S(=O)(=O)N2CCOCC2)c1,"inconclusive: 5.17 µM [rising, partial curve]",
Cc1ccc(-c2nnc3n2N=C(c2ccc(Br)cc2)CS3)cc1,,inconclusive: 3.35%
CC(C)(C)c1cc(NC(=O)C2CCCO2)no1 (stereo not given),,inconclusive: -60.4%
Cc1cc(-c2ccccc2)nc(N2CCN(c3ccccn3)CC2)n1,,inconclusive: 4.44%
Cc1cc(C)c(OCCN2CC(C)OC(C)C2)c(Br)c1 (stereo not given),,inconclusive: 5.49%
O=C(NCCN1CCCC1)c1ccc(Br)cc1,"inconclusive: 0.259 µM [activator, full curve, poor fit]",
Cc1ccc(OCCCCNC2CCCCC2)c(C)c1,,inactive
Cc1cnc(C(=O)OCC(=O)Nc2sc3c(c2C#N)CCC3)cn1,"inconclusive: 6.51 µM [activator, single point]",

SMILES,Potency,"lipid storage change, negative = inhibition"
O=C(CSc1nc(-c2ccccc2)nc2ccccc12)Nc1nccs1,,inconclusive: -52.3%
Cc1ccc([N+](=O)[O-])c(OCc2ncc(Cl)n2C)c1,,inconclusive: 14.5%
Nc1cccc(S(=O)(=O)Nc2ccc(SC(F)F)cc2)c1,,inconclusive: 26.9%
O=c1nc(N2CCOCC2)ccn1-c1nc(-c2ccccc2)oc1-c1ccccc1,,inconclusive: -46.8%
O=C(Nc1nnc(-c2ccncc2)o1)c1ccc(Br)s1,,inconclusive: -22.2%
CCc1nc2cccnc2n1-c1ccc(CC(=O)NCCOC)cc1,"inconclusive: 6.51 µM [activator, single point]",
Cn1c(SCC(=O)Nc2ccccc2Cl)nnc1C1CC1,,inconclusive: 13.5%
CC(NC(=O)COC(=O)C1CCN(c2ccc(C(F)(F)F)cn2)CC1)c1ccc(F)cc1 (stereo not given),,inconclusive: 3.46%
O=C(CCC(=O)N1CCOc2ccccc21)Nc1cc(F)ccc1F,,inactive
Cc1c(NS(=O)(=O)c2cc(C(=O)NCc3ccco3)cc(Cl)c2Cl)c(=O)n(-c2ccccc2)n1C,"inconclusive: 4.11 µM [activator, full curve, poor fit]",
COc1ccc(CSc2nnnn2-c2ccc(C(=O)O)cc2)cc1,"inconclusive: 7.31 µM [activator, partial curve]",
O=C(NS(=O)(=O)Oc1ccc(F)cc1F)OC[C@@H]1CCCN2CCCCC12 (stereo not given in full),,inconclusive: 136%
Cc1cccc(NC(=O)CS(=O)(=O)c2c[nH]c3ccccc23)c1C,,inconclusive: -25.7%
COC(=O)c1ccc(Cn2c(CN3CCOCC3)nc3ccccc3c2=O)o1,"inconclusive: 0.259 µM [activator, full curve]",
Cc1nn(CC(=O)Nc2cc(S(=O)(=O)N(C)C)ccc2Cl)c(C)c1[N+](=O)[O-],,inconclusive: 1.84%
Cc1ccc(CN2CCN(Cc3cnc(N4CCOCC4)s3)CC2CCO)o1 (stereo not given),"inconclusive: 14.6 µM [activator, single point]",
CCc1cc2c(=O)[nH]c(COC)nc2s1,,inconclusive: 0.982%
Cc1ccc(OCC(=O)NCCNC(=O)c2cnccn2)cc1C,,inconclusive: 118%
Cc1cccc(-n2cnc3cc(C(=O)N4CCc5ccccc54)ccc32)c1,"inconclusive: 25.9 µM [falling, single point]",
CN(C)CCC1CCN(c2cc(C#N)c(C#N)cc2[N+](=O)[O-])CC1,,inactive
CCN(CC(=O)Nc1ccc(NC(C)=O)cc1)C(=O)c1cccc(S(=O)(=O)N2c3ccccc3CC2C)c1 (stereo not given),,inconclusive
O=C(N/N=C/c1cccc([N+](=O)[O-])c1)C1CC(=O)N(c2ccc(Cl)cc2)C1 (stereo not given),,inconclusive: -7.38%
COc1ccccc1N1CCN(C(=S)NC(=O)/C=C/c2ccccc2)CC1,,inconclusive: -15.6%
CCOc1ccc(NC(=O)[C@@H]2CCCN2C(=O)c2cccs2)cc1S(=O)(=O)N1CCCCC1,,inconclusive: -11.2%
COc1ccc(C=O)cc1OS(=O)(=O)c1ccccc1[N+](=O)[O-],,inconclusive: -13.5%

SMILES,Potency,"lipid storage change, negative = inhibition"
COc1ccc2c(c1)cc(C(=O)N[C@@H](Cc1ccccc1)C(=O)N[C@@H](C)C(=O)O)n2C,,inconclusive: -18.7%
C/C=C/c1cc(CN2CCN(c3ccccc3)CC2)c(O)c(OC)c1,,inconclusive: 45.4%
C=CCN=C1CC(C)(C)CC(=O)/C1=C(\O)CCCN1C(=O)c2ccccc2C1=O,,inconclusive: -16.3%
COc1ccc(C(=O)NN2C(=O)C3C(c4ccccc4)C=CC(c4ccccc4)C3C2=O)cc1 (stereo not given),"inconclusive: 13 µM [falling, partial curve]",
COc1ccccc1CN(C)C(=O)CN1CCN(CC(=O)Nc2ccccc2Cl)CC1,"inconclusive: 0.0731 µM [activator, full curve, poor fit]",
COc1ccc(-c2cc(C(=O)NC3CC3)c3ccccc3n2)cc1,,inconclusive: -1.26%
O=C(CCS(=O)(=O)c1ccccc1)Nc1nc(-c2cccs2)cs1,,inconclusive: 13.3%
O=C(CN1C(=O)/C(=C2\SC(=S)N(CCS(=O)(=O)O)C2=O)c2ccccc21)Nc1cccc(Br)c1,"inconclusive: 32.6 µM [falling, single point]",
Cc1ccc(O)c(NC(=S)NC(=O)COc2ccc(Br)cc2)c1,"inconclusive: 29.1 µM [falling, single point]",
Cc1ccc(C(=O)NC(C)c2ccncc2)o1 (stereo not given),"inconclusive: 3.66 µM [activator, full curve, poor fit]",
O=C1COc2ccc(-c3n[nH]c(=O)c4ccccc34)cc2N1,,inconclusive: -89.8%
CN(C)CCNC(=O)CNC(=S)N(Cc1ccccc1)Cc1cccnc1,,inconclusive: 25.2%
COc1ccc(S(N)(=O)=O)cc1C(=O)NCC(C)(C)N1CCCCC1,"inconclusive: 0.82 µM [falling, full curve]",
COc1cc(OC)cc(N(C(=O)c2snc(C(N)=O)c2N)C(C(=O)NCC2CCCO2)c2ccc(C)o2)c1 (stereo not given),"inconclusive: 0.0052 µM [falling, full curve, poor fit]",
COc1ccc(CN2CCNC(=O)C2CC(=O)NCC2CCOCC2)cc1C (stereo not given),,inconclusive: 12.1%
COc1cc(C(=O)CCN2CCC(c3ccccc3)C2)cc(OC)c1OC (stereo not given),"inconclusive: 13 µM [falling, partial curve, poor fit]",
Cc1ccc(CCNC(=O)CCS(=O)(=O)c2ccc(Br)cc2)cc1,,inconclusive: 10.9% [at 9.22 µM]
CCOc1cc(/C=C2\N=C(SCC)SC2=O)cc([N+](=O)[O-])c1OC(C)=O,,inconclusive: 19.9%
CCCn1c(N)c(N(CCOC)C(=O)c2cccc(C(F)(F)F)c2)c(=O)[nH]c1=O,,inconclusive: -117%
O=C(Nc1cc(S(=O)(=O)N2CCOCC2)ccc1Cl)c1cc2ccccc2o1,"inconclusive: 10.3 µM [falling, partial curve, poor fit]",
COc1ccc(-c2nn(-c3ccccc3)cc2C(=O)O)cc1,,inconclusive: 51.9%
CS(=O)(=O)N1CCN=C1SCc1ccccc1,,inconclusive: 162%
Cc1cc2cc(CN(CC3CCCO3)C(=S)NCc3ccco3)c(=O)[nH]c2cc1C (stereo not given),,inconclusive: 15.2%
Cc1nn(C(=O)c2ccoc2C)c(N)c1-c1ccccc1,,inconclusive: 71%
CN1CCN(c2ccc(NC(=O)COc3ccc4ccccc4c3)cc2)CC1,,inconclusive: 15.6%

# Entries above with a cyano group, in the order listed:
SMILES,Potency,"lipid storage change, negative = inhibition"
CCOc1ccc(C2C(C#N)=C(N)SC(N)=C2C#N)cc1OC,,inconclusive: 14.2%
Cc1cnc(C(=O)OCC(=O)Nc2sc3c(c2C#N)CCC3)cn1,"inconclusive: 6.51 µM [activator, single point]",
CN(C)CCC1CCN(c2cc(C#N)c(C#N)cc2[N+](=O)[O-])CC1,,inactive
